Source: patent US9585392B2, “3-phenylisoxazolin derivatives with herbicidal action” (BAYER CROPSCIENCE AG, priority 2012, dated 2017)
Some results were stated once for a whole list of compounds, not compound by compound.

Assays:
Assay type in all cases: in vivo
[1] = system: Avena fatua; experiment: Pre-emergence herbicidal action against harmful plants; settings: application rate of 320 grams per hectare, scored visually after 3 to 4 weeks in the greenhouse
[2] = system: Avena fatua; experiment: Post-emergence herbicidal action against harmful plants; settings: three-leaf stage, application rate of 320 grams per hectare, scored visually after 3 to 4 weeks in the greenhouse
[3] = system: Stellaria media; experiment: Pre-emergence herbicidal action against harmful plants; settings: application rate of 320 grams per hectare, scored visually after 3 to 4 weeks in the greenhouse
[4] = system: Veronica persica; experiment: Post-emergence herbicidal action against harmful plants; settings: three-leaf stage, application rate of 320 grams per hectare, scored visually after 3 to 4 weeks in the greenhouse
[5] = system: Lolium multiflorum; experiment: Pre-emergence herbicidal action against harmful plants; settings: application rate of 320 grams per hectare, scored visually after 3 to 4 weeks in the greenhouse

SMILES	efficacy against Avena fatua [1]	efficacy against Avena fatua [2]	further results
CC1(C(=O)O)CC(c2cccc(S(F)(F)(F)(F)F)c2)=NO1 (stereo not drawn) [1.1.054]	at least 80%	–	–
CC1(C(=O)O)CC(c2cc(F)cc(F)c2)=NO1 (stereo not drawn) [1.1.462]	at least 80%	at least 80%	–
CC1(C(=O)O)CC(c2cc(F)cc(Cl)c2)=NO1 (stereo not drawn) [1.1.471]	–	–	efficacy against Stellaria media [3]: at least 80%
CC1(C(=O)O)CC(c2cc(F)cc(C(F)(F)F)c2)=NO1 (stereo not drawn) [1.1.494]	at least 80%	at least 80%	–
COc1cc(F)cc(C2=NOC(C)(C(=O)O)C2)c1 (stereo not drawn) [1.1.502]	–	–	efficacy against Veronica persica [4]: at least 80%
CC1(C(=O)O)CC(c2cc(Cl)cc(Cl)c2)=NO1 (stereo not drawn) [1.1.519]	–	at least 80%	efficacy against Stellaria media [3]: at least 80%
CC1(C(=O)O)CC(c2cc(Cl)cc(Br)c2)=NO1 (stereo not drawn) [1.1.527]	at least 80%	–	efficacy against Veronica persica [4]: at least 80%
Cc1cc(Cl)cc(C2=NOC(C)(C(=O)O)C2)c1 (stereo not drawn) [1.1.529]	–	at least 80%	–
CC1(C(=O)O)CC(c2cc(Cl)cc(C(F)(F)F)c2)=NO1 (stereo not drawn) [1.1.540]	–	at least 80%	efficacy against Stellaria media [3]: at least 80%
Cc1cc(Br)cc(C2=NOC(C)(C(=O)O)C2)c1 (stereo not drawn) [1.1.566]	–	at least 80%	efficacy against Lolium multiflorum [5]: at least 80%
CC1(C(=O)O)CC(c2cc(Br)cc(C(F)(F)F)c2)=NO1 (stereo not drawn) [1.1.580]	at least 80%	at least 80%	efficacy against Stellaria media [3]: at least 80%
CC1(C(=O)O)CC(c2cc(I)cc(I)c2)=NO1 (stereo not drawn) [1.1.603]	at least 80%	–	–
CC1(C(=O)O)CC(c2cc(C#N)cc(C(F)(F)F)c2)=NO1 (stereo not drawn) [1.1.925]	–	–	efficacy against Veronica persica [4]: at least 80%
CC1(C(=O)O)CC(c2ccc(Cl)c(F)c2)=NO1 (stereo not drawn) [1.1.1211]	–	–	efficacy against Veronica persica [4]: at least 80%
CC1(C(=O)O)CC(c2cc(F)c(F)c(F)c2)=NO1 (stereo not drawn) [1.1.2008]	at least 80%	–	efficacy against Veronica persica [4]: at least 80%
CC1(C(=O)O)CC(c2cc(Cl)c(Cl)c(Cl)c2)=NO1 (stereo not drawn) [1.1.2009]	–	at least 80%	–
O=C(O)C1(CCl)CC(c2cccc(F)c2)=NO1 (stereo not drawn) [1.2.002]	–	–	efficacy against Veronica persica [4]: at least 80%
O=C(O)C1(CBr)CC(c2cc(F)cc(F)c2)=NO1 (stereo not drawn) [1.2.470]	–	at least 80%	–
O=C(O)C1(C(F)F)CC(c2cc(F)cc(F)c2)=NO1 (stereo not drawn) [1.2.471]	at least 80%	at least 80%	–
O=C(O)C1(CBr)CC(c2cc(Cl)cc(Cl)c2)=NO1 (stereo not drawn) [1.2.525]	–	at least 80%	–

SMILES	efficacy against Avena fatua [1]	efficacy against Avena fatua [2]	further results
N#CC1(C(=O)O)CC(c2cc(Cl)cc(Cl)c2)=NO1 (stereo not drawn) [1.2.528]	–	–	efficacy against Veronica persica [4]: at least 80%
C=CC1(C(=O)O)CC(c2cccc(F)c2)=NO1 (stereo not drawn) [1.3.001]	at least 80%	at least 80%	–
C=C(Cl)C1(C(=O)O)CC(c2cccc(F)c2)=NO1 (stereo not drawn) [1.3.004]	–	at least 80%	–
C=CC1(C(=O)O)CC(c2cc(F)cc(F)c2)=NO1 (stereo not drawn) [1.3.470]	at least 80%	at least 80%	–
O=C(O)C1(C=C(F)F)CC(c2cc(F)cc(F)c2)=NO1 (stereo not drawn) [1.3.472]	–	at least 80%	–
C=C(Cl)C1(C(=O)O)CC(c2cc(F)cc(F)c2)=NO1 (stereo not drawn) [1.3.473]	at least 80%	at least 80%	–
C#CC1(C(=O)O)CC(c2cc(F)cc(F)c2)=NO1 (stereo not drawn) [1.3.474]	–	at least 80%	efficacy against Lolium multiflorum [5]: at least 80%
C=C(C)C1(C(=O)O)CC(c2cc(F)cc(Cl)c2)=NO1 (stereo not drawn) [1.3.476]	–	at least 80%	efficacy against Stellaria media [3]: at least 80%
C=CC1(C(=O)O)CC(c2cc(C)cc(F)c2)=NO1 (stereo not drawn) [1.3.486]	–	at least 80%	–
C=CC1(C(=O)O)CC(c2cc(Cl)cc(Cl)c2)=NO1 (stereo not drawn) [1.3.527]	at least 80%	at least 80%	–
C=C(C)C1(C(=O)O)CC(c2cc(Cl)cc(Cl)c2)=NO1 (stereo not drawn) [1.3.528]	–	at least 80%	–
C=CC1(C(=O)O)CC(c2cc(C)cc(Br)c2)=NO1 (stereo not drawn) [1.3.571]	–	at least 80%	efficacy against Stellaria media [3]: at least 80%
C=CC1(C(=O)O)CC(c2cc(C)cc(C)c2)=NO1 (stereo not drawn) [1.3.644]	–	at least 80%	efficacy against Stellaria media [3]: at least 80%
CCOC(=O)C1(C)CC(c2cc(F)cc(F)c2)=NO1 (stereo not drawn) [2.1.466]	at least 80%	at least 80%	–
CCOC(=O)C1(C)CC(c2cc(F)cc(Br)c2)=NO1 (stereo not drawn) [2.1.478]	at least 80%	at least 80%	–
CCOC(=O)C1(C)CC(c2cc(Cl)cc(Cl)c2)=NO1 (stereo not drawn) [2.1.522]	at least 80%	at least 80%	–
COC(=O)C1(C)CC(c2cc(Cl)cc(Cl)c2)=NO1 (stereo not drawn) [2.1.523]	–	–	efficacy against Veronica persica [4]: at least 80%; efficacy against Stellaria media [3]: at least 80%
CC(C)OC(=O)C1(C)CC(c2cc(Cl)cc(Cl)c2)=NO1 (stereo not drawn) [2.1.524]	–	–	efficacy against Veronica persica [4]: at least 80%; efficacy against Stellaria media [3]: at least 80%
CCOC(=O)C1(CC)CC(c2cc(Cl)cc(Cl)c2)=NO1 (stereo not drawn) [2.1.527]	–	at least 80%	–
CCOC(=O)C1(C2CC2)CC(c2cc(Cl)cc(Cl)c2)=NO1 (stereo not drawn) [2.1.530]	–	at least 80%	–

SMILES	efficacy against Avena fatua [1]	efficacy against Avena fatua [2]	further results
COC(=O)C1(C)CC(c2cc(Cl)cc(Br)c2)=NO1 (stereo not drawn) [2.1.531]	–	–	efficacy against Veronica persica [4]: at least 80%; efficacy against Lolium multiflorum [5]: at least 80%
CCOC(=O)C1(C)CC(c2cc(Cl)cc(Br)c2)=NO1 (stereo not drawn) [2.1.532]	–	at least 80%	efficacy against Stellaria media [3]: at least 80%
CC(C)OC(=O)C1(C)CC(c2cc(Cl)cc(C(F)(F)F)c2)=NO1 (stereo not drawn) [2.1.546]	at least 80%	at least 80%	–
CCOC(=O)C1(C)CC(c2cc(Br)cc(Br)c2)=NO1 (stereo not drawn) [2.1.569]	–	–	efficacy against Stellaria media [3]: at least 80%
CCOC(=O)C1(CC)CC(c2cc(Br)cc(Br)c2)=NO1 (stereo not drawn) [2.1.570]	–	at least 80%	–
CCOC(=O)C1(C)CC(c2cc(Br)cc(C(F)(F)F)c2)=NO1 (stereo not drawn) [2.1.588]	at least 80%	at least 80%	–
CCOC(=O)C1(C)CC(c2cc(C)cc(OC(F)(F)F)c2)=NO1 (stereo not drawn) [2.1.670]	–	–	efficacy against Veronica persica [4]: at least 80%
CCOC(=O)C1(CBr)CC(c2cc(F)cc(F)c2)=NO1 (stereo not drawn) [2.2.471]	–	at least 80%	–
CCOC(=O)C1(C(F)F)CC(c2cc(F)cc(F)c2)=NO1 (stereo not drawn) [2.2.472]	at least 80%	at least 80%	–
CC(C)OC(=O)C1(C#N)CC(c2cc(F)cc(F)c2)=NO1 (stereo not drawn) [2.2.475, isopropyl 5-cyano-3-(3,5-difluorophenyl)-4,5-dihydro-1,2-oxazole-5-carboxylate]	–	–	efficacy against Veronica persica [4]: at least 80%
CCOC(=O)C1(CCl)CC(c2cc(Cl)cc(Cl)c2)=NO1 (stereo not drawn) [2.2.527]	–	at least 80%	–
COC(=O)C1(C(F)(F)F)CC(c2cc(Cl)cc(Cl)c2)=NO1 (stereo not drawn) [2.2.530]	–	–	efficacy against Stellaria media [3]: at least 80%
C=CC1(C(=O)OC)CC(c2cc(F)cc(Cl)c2)=NO1 (stereo not drawn) [2.3.475]	at least 80%	at least 80%	–
C=C(C)C1(C(=O)OC)CC(c2cc(F)cc(Cl)c2)=NO1 (stereo not drawn) [2.3.476]	–	at least 80%	–
C=CC1(C(=O)OC)CC(c2cc(Cl)cc(Cl)c2)=NO1 (stereo not drawn) [2.3.527]	–	at least 80%	efficacy against Stellaria media [3]: at least 80%
C=C(C)C1(C(=O)OC)CC(c2cc(Cl)cc(Cl)c2)=NO1 (stereo not drawn) [2.3.528]	at least 80%	at least 80%	–
C=CC1(C(=O)OC)CC(c2cc(C)cc(Cl)c2)=NO1 (stereo not drawn) [2.3.534]	–	at least 80%	efficacy against Stellaria media [3]: at least 80%
C=C(C)C1(C(=O)OC)CC(c2cc(C)cc(Cl)c2)=NO1 (stereo not drawn) [2.3.535]	–	at least 80%	–
C=CC1(C(=O)OC)CC(c2cc(C)cc(C)c2)=NO1 (stereo not drawn) [2.3.645]	–	at least 80%	–
CCC1(C(=O)OCCC(=O)OC)CC(c2cc(F)cc(F)c2)=NO1 (stereo not drawn) [2.6.486, 3-methoxy-3-oxopropyl-3-(3,5-difluorophenyl)-5-ethyl-4,5-dihydro-1,2-oxazole-5-carboxylate]	at least 80%	at least 80%	–
